Experimental data: US20090162363A1 (published 2009)
Results are given in words; binding and its absence hold for the method and conditions named. For some assays here: In cells and extracts the contact can be indirect. Some results given as binding are weak or reduced against the parent protein; the word gives no strength. Where a sequence is shown, tags or fusion partners need not be part of it.

T1: recombinant human PEDF protein (pigment epithelium derived factor) (human) (UniProt P36955)
T1 sequence (looked up): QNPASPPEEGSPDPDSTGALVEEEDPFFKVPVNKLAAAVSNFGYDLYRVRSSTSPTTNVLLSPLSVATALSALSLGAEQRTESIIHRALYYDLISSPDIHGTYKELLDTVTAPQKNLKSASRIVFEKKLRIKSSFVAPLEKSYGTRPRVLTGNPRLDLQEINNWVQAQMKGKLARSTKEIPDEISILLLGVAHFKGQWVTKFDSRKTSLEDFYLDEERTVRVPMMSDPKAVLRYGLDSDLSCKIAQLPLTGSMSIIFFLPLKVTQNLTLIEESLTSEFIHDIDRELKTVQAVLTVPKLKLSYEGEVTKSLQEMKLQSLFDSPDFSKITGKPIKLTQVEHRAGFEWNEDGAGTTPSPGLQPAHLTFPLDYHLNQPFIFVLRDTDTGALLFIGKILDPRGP

T2: Lumio-R1N protein (human R1 with N-terminal Lumio tag, expressed in COS-7 cells from pLumio-R1N) (human) (UniProt Q96AD5)
T2 sequence (looked up): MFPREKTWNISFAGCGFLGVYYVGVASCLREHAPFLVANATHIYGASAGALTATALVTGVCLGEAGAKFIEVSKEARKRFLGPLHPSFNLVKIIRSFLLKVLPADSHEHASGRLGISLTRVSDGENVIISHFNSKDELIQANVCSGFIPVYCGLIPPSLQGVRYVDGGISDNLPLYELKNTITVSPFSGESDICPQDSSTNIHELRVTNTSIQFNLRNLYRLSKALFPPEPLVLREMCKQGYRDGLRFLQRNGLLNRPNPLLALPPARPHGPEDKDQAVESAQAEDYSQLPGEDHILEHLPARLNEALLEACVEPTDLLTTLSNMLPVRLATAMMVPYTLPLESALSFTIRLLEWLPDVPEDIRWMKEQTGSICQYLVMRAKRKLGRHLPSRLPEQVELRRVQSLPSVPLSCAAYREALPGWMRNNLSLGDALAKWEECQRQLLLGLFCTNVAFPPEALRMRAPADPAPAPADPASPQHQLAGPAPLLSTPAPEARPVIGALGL


Tests used:
[1] = biological target: T1, recombinant human PEDF protein (pigment epithelium derived factor) (human); test: His-tag pull-down, solid-phase binding, ultrafiltration and SPR
[2] = biological target: T2, Lumio-R1N protein (human R1 with N-terminal Lumio tag, expressed in COS-7 cells from pLumio-R1N) (human); test: complex formation assay (Centricon-100 ultrafiltration) with cytosolic fraction of COS-7 cells expressing R1

binding [1] | binding [2] | Binder
binds |  | R1N (recombinant human PEDF-R1 polypeptide with N-terminal 6xHis tag, from pEXP1-R1N) (receptor) MFPREKTWNISFAGCGFLGVYYVGVASCLREHAPFLVANATHIYGASAGALTATALVTGVCLGEAGAKFIEVSKEARKRFLGPLHPSFNLVKIIRSFLLKVLPADSHEHASGRLGISLTRVSDGENVIISHFNSKDELIQANVCSGFIPVYCGLIPPSLQGVRYVDGGISDNLPLYELKNTITVSPFSGESDICPQDSSTNIHELRVTNTSIQFNLRNLYRLSKALFPPEPLVLREMCKQGYRDGLRFLQRNGLLNRPNPLLALPPARPHGPEDKDQAVESAQAEDYSQLPGEDHILEHLPARLNEALLEACVEPTDLLTTLSNMLPVRLATAMMVPYTLPLESALSFTIRLLEWLPDVPEDIRWMKEQTGSICQYLVMRAKRKLGRHLPSRLPEQVELRRVQSLPSVPLSCAAYREALPGWMRNNLSLGDALAKWEECQRQLLLGLFCTNVAFPPEALRMRAPADPAPAPADPASPQHQLAGPAPLLSTPAPEARPVIGALGL
 | binds | recombinant human PEDF protein (pigment epithelium derived factor) (ligand, UniProt P36955 20-418, looked up) QNPASPPEEGSPDPDSTGALVEEEDPFFKVPVNKLAAAVSNFGYDLYRVRSSTSPTTNVLLSPLSVATALSALSLGAEQRTESIIHRALYYDLISSPDIHGTYKELLDTVTAPQKNLKSASRIVFEKKLRIKSSFVAPLEKSYGTRPRVLTGNPRLDLQEINNWVQAQMKGKLARSTKEIPDEISILLLGVAHFKGQWVTKFDSRKTSLEDFYLDEERTVRVPMMSDPKAVLRYGLDSDLSCKIAQLPLTGSMSIIFFLPLKVTQNLTLIEESLTSEFIHDIDRELKTVQAVLTVPKLKLSYEGEVTKSLQEMKLQSLFDSPDFSKITGKPIKLTQVEHRAGFEWNEDGAGTTPSPGLQPAHLTFPLDYHLNQPFIFVLRDTDTGALLFIGKILDPRGP
